# Test results: PubChem BioAssay AID485314 (National Center for Advancing Translational Sciences (NCATS), 2010)
# In all, about 340,000 compounds went through this assay and about 4,500 (1.3%) were called active. Inconclusive results, whose numbers are uncertain, are shown with a selection of clear calls. The call rests on the fitted dose curve; in most records, active means well fitted inhibition curve with a large enough effect; inconclusive means small, poorly fitted or top-dose-only effect, or another doubt; inactive means no such curve, though single readings can be large or run the other way. A potency beside an inconclusive call is a rough fit, not a confirmed value.
# Target: DNA polymerase beta (Homo sapiens) (UniProt P06746)
# Experiment: qHTS Assay for Inhibitors of DNA Polymerase Beta
# Conditions: Pol beta primer extension/strand displacement, fluorescence kinetic; activity change, negative = inhibition: at 114 µM (top of the series)
# In short: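 Kinetic readout of DNA synthesis with strand displacement by Pol beta. Compound and 10 nM enzyme sit 15 min at room temperature; 50 nM substrate starts the reaction, read immediately and at 10 min.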
# On the % scale 0 is the no-effect control and ±100 the full control effect; potency means the concentration at half of the fitted maximal effect.
SMILES,Potency,"activity change, negative = inhibition"
O=C(CSc1nnc(C2COc3ccccc3O2)o1)NC1CCCCC1 (stereo not drawn),"inconclusive: 100 µM [inhibitor, single point]",
CCOc1ccccc1NC(=O)CSc1nnc(-c2ccco2)n1Cc1ccco1,"inconclusive: 31.6 µM [inhibitor, partial curve]",
CC(=O)Nc1sc2c(c1-c1nc3ccccc3s1)CCN(C(C)C)C2,active: 3.55 µM,
CCn1c(CNC(=O)c2ccco2)nnc1SCC(=O)c1ccc(OC)cc1,"inconclusive: 89.1 µM [inhibitor, single point]",
COc1cc(N=Nc2cccc(S(N)(=O)=O)c2)c2ccccc2c1N,"inconclusive: 12.6 µM [inhibitor, full curve, poor fit]",
COc1ccc2nc(-n3c(O)c(C4=c5ccccc5=NC4=O)[nH]c3=S)sc2c1,active: 8.91 µM,
Cc1nc2ccc(-c3nc4ccc(N)cc4[nH]3)cc2[nH]1,active: 12.6 µM,
C=CCOC(=O)C1=C[C@H](c2coc3ccccc3c2=O)C[C@H](OCc2ccc(CO)cc2)O1,"inconclusive: 89.1 µM [inhibitor, single point]",
COc1cccc(OC)c1C(=O)Nc1ccc2c3c(cccc13)CC2,"inconclusive: 0.141 µM [inhibitor, full curve, poor fit]",
S=c1nc(-c2cc(Cl)ccc2Cl)[nH][nH]1,,inactive: 2.87%
CCc1ccc(CNC(=O)C2COc3ccccc3C2)cc1 (stereo not drawn),,inactive: 10.8%
CN(C)S(=O)(=O)c1ccc(N2CCCC2)c(C(=O)NCCc2ccc(F)cc2)c1,"inconclusive: 0.158 µM [inhibitor, full curve, poor fit]",
O=C(NCCCN1CCN(CCCNC(=O)c2cccc([N+](=O)[O-])c2)CC1)c1cccc([N+](=O)[O-])c1,"inconclusive: 1 µM [inhibitor, full curve, poor fit]",
NC1=NC(=O)/C(=C/c2ccc(Cl)cc2Cl)S1,"inconclusive: 1.78 µM [inhibitor, full curve, poor fit]",
COc1ccc(OC)c(N/C(C)=C/C(=O)c2ccncc2)c1,"inconclusive: 25.1 µM [inhibitor, single point]",
CCOC(=O)C1=C(CSc2nc3c(cc2C#N)CN(C)CC3)OC(N)=C(C#N)C1c1ccncc1 (stereo not drawn),"inconclusive: 79.4 µM [inhibitor, single point]",
Cn1c(=O)c2c(SCC(=O)Nc3ccc4c(c3)OCCO4)nc(CC(C)(C)C)nc2n(C)c1=O,"inconclusive: 89.1 µM [inhibitor, single point]",
COc1ccc(/C=N/NC(=O)CCSc2nc3ccccc3s2)cc1OC,"inconclusive: 89.1 µM [inhibitor, single point]",
O=C(OCC(=O)N1CCCC1=O)c1nc(Cl)c(Cl)c(Cl)c1Cl,"inconclusive: 89.1 µM [inhibitor, single point]",
CCN(CC)c1ccc(/C=N/N2CCN(c3ccccn3)CC2)cc1,"inconclusive: 5.62 µM [inhibitor, full curve]",
Cc1ccc(OCc2cc(=O)n3cc(C)sc3n2)c(NC(=O)c2ccco2)c1,"inconclusive: 56.2 µM [inhibitor, partial curve]",
O=C(O)c1cc(N2C(=O)C3CC=CCC3C2=O)ccc1NCc1cccnc1 (stereo not drawn),"inconclusive: 100 µM [inhibitor, partial curve, poor fit]",
Cc1cc(C)cc(NC(=O)C2CCCN2C(=O)Oc2ccccc2)c1 (stereo not drawn),"inconclusive: 31.6 µM [inhibitor, partial curve]",

# 3 structures out of the list, arranged by formula weight, ascending:
SMILES,Potency,"activity change, negative = inhibition"
S=c1nc(-c2cc(Cl)ccc2Cl)[nH][nH]1,,inactive: 2.87%
O=C(CSc1nnc(C2COc3ccccc3O2)o1)NC1CCCCC1 (stereo not drawn),"inconclusive: 100 µM [inhibitor, single point]",
CN(C)S(=O)(=O)c1ccc(N2CCCC2)c(C(=O)NCCc2ccc(F)cc2)c1,"inconclusive: 0.158 µM [inhibitor, full curve, poor fit]",

# The list goes on.

SMILES,Potency,"activity change, negative = inhibition"
Cc1sc2ncnc(SCC(=O)N3CCCC(C(F)(F)F)C3)c2c1C (stereo not drawn),,inactive: 31.7%
CCc1cccc(NC(=O)Cn2nc(C)c3sc4ccccc4c3c2=O)c1,active: 22.4 µM,
COc1ccc(Cn2c(=O)c3ccccc3n3c(-c4ccc(C)cc4)nnc23)cc1,,inactive: 30.1%
S=c1[nH]nc(-c2cc(-c3ccccc3)n[nH]2)n1/N=C/C=C/c1ccccc1,"inconclusive: 15.8 µM [inhibitor, single point]",
COc1ccc(-c2nnc(SCC(=O)Oc3cc(C)ccc3C)o2)cc1,,inactive: 13.9%
O=C(Nc1ccc(S(=O)(=O)Nc2nccs2)cc1)c1ccc(=O)[nH]c1,active: 50.1 µM,
O=C(Nc1cccc(NC(=O)c2ccc(Br)cc2)c1)c1ccccc1,,inconclusive: -31.3% [inhibitor]
COc1ccccc1NC(=S)NC(=O)c1c(-c2ccccc2Cl)noc1C,"inconclusive: 0.891 µM [inhibitor, full curve, poor fit]",
CCn1c(=N)n(CC(O)COc2ccc(C)cc2)c2ccccc21 (stereo not drawn),"inconclusive: 20 µM [inhibitor, partial curve, poor fit]",
CCC(=O)N1c2ccc(S(=O)(=O)CCC(=O)N3CCN(c4ccc(F)cc4)CC3)cc2CC1C (stereo not drawn),,inactive: 3.78%
O=C(NC1CCCCC1)C(c1ccc2ncccc2c1)N(Cc1ccccc1)C(=O)c1cccs1 (stereo not drawn),"inconclusive: 89.1 µM [inhibitor, single point]",
O=C(CCn1c(=O)c2ccccc2n(CC(=O)N2CCN(c3ccccc3)CC2)c1=O)NCc1ccco1,"inconclusive: 89.1 µM [inhibitor, single point]",
O=C(N/N=C/c1ccc(Br)cc1)c1ccc(Br)o1,"inconclusive: 63.1 µM [inhibitor, partial curve, poor fit]",
NC(=O)c1ccc([N+](=O)[O-])cc1SCc1ccccc1,active: 39.8 µM,
CC(C)Oc1ccc(CNC(=O)c2ccc3c(c2)N(C)C(=O)C2CCCCN32)cc1 (stereo not drawn),,inactive: 13%
CCOC(=O)/C(C#N)=C\c1ccco1,active: 39.8 µM,
COc1ccc(CN(Cc2cc3cc(C)ccc3[nH]c2=O)C(=O)N(C)C)cc1,"inconclusive: 1 µM [inhibitor, full curve]",
CCNC(=O)C1CCCN(c2nn3cc(-c4ccc(C)cc4)nc3s2)C1 (stereo not drawn),,inactive: -14.1%
O=C(N/N=C/c1cccs1)c1c[nH]c2ccccc12,"inconclusive: 50.1 µM [inhibitor, partial curve]",
CCOc1ccc(C(=O)NCCc2csc(-c3cccnc3)n2)cc1,"inconclusive: 89.1 µM [inhibitor, single point]",
CCN(CC)S(=O)(=O)c1ccc2c(c1)N(CC(=O)NCCCN1CCN(c3cc(C)ccc3C)CC1)C(=O)CO2,,inactive: 0.216%
CC1CC(C)CN(C(=O)CCn2c(=O)oc3ccccc32)C1 (stereo not drawn),"inconclusive: 2 µM [inhibitor, partial curve, poor fit]",
CCn1c(CSc2nnc(-c3cccnc3)n2-c2ccccc2C)nc2cc(C(=O)O)ccc21,active: 3.55 µM,

SMILES,Potency,"activity change, negative = inhibition"
O=C(C(NS(=O)(=O)c1cccs1)c1ccccc1)N1CCN(c2ccccc2F)CC1 (stereo not drawn),"inconclusive: 70.8 µM [inhibitor, partial curve, poor fit]",
O=C(Nc1cccc(-c2nnc(-c3ccccc3)o2)c1)C1CCCCC1,"inconclusive: 39.8 µM [inhibitor, single point]",
O=S(=O)(NCCc1ccc2c(c1)OCCO2)c1cccs1,"inconclusive: 79.4 µM [inhibitor, single point]",
O=C(Nc1ccc2oc(-c3ccc(Br)cc3)nc2c1)c1cc2ccccc2o1,,inconclusive: -30.5% [inhibitor]
S=C(c1ccc(-c2cccc(Cl)c2)o1)N1CCOCC1,"inconclusive: 28.2 µM [inhibitor, single point]",
C/C(=N\Nc1nc(C(=O)O)cs1)c1ccccc1,"inconclusive: 89.1 µM [inhibitor, single point]",
COc1ccc([N+](=O)[O-])cc1N(CC1CO1)S(=O)(=O)c1ccc(C)cc1 (stereo not drawn),,inactive: 1.27%
CCOc1cc(/C=N/Nc2nn3cnnc3c3ccccc23)ccc1O,"inconclusive: 10 µM [inhibitor, full curve, poor fit]",
COc1cc(/C=N/Nc2nc3ccccc3s2)cc([N+](=O)[O-])c1O,active: 22.4 µM,
C=CCn1c(=NC(=O)c2ccc(S(=O)(=O)N3CCCC3)cc2)sc2cc(NC(C)=O)ccc21,"inconclusive: 15.8 µM [inhibitor, partial curve, poor fit]",
Brc1ccc(C2Nc3cccc4cccc(c34)N2)o1,,inactive: 7.39%
CCCCC(=O)Nc1nnc(/C=C/c2ccc(OC)cc2)s1,"inconclusive: 89.1 µM [inhibitor, single point]",
Cc1oc(-c2ccccc2F)nc1CS(=O)(=O)CC(=O)NCCCc1ccccc1,"inconclusive: 63.1 µM [inhibitor, partial curve, poor fit]",
Cc1cccc(-n2nc3c(c2NC(=O)c2ccc(Br)o2)CSC3)c1,active: 56.2 µM,
CCSc1nnc(-c2ccccc2N=Cc2c(C)[nH]n(-c3ccccc3)c2=O)c(=O)[nH]1,"inconclusive: 89.1 µM [inhibitor, single point]",
COc1cc(C(=O)N(C)CCOc2ccc(C)cc2)ccc1OC1CCN(C(C)=O)CC1,"inconclusive: 70.8 µM [inhibitor, single point]",
CCCSc1ccc2nc(-c3ccccc3)cn2c1,,inactive: -0.308%
CCN(CC)c1ccc(NC(=O)C2CCN(S(=O)(=O)c3c(C)noc3/C=C/c3ccccc3F)CC2)c(C)c1,,inactive: -0.363%
CCOC(=O)c1cnn(-c2nc(-c3ccccc3F)cs2)c1C(F)(F)F,"inconclusive: 70.8 µM [inhibitor, single point]",
CCOCCn1c(C(C)C)nc2ccccc21,,inactive: 5.17%
CCc1ccc(C(=O)c2cn(CC(=O)Nc3ccc4c(c3)OCO4)c3ccc(Cl)cc3c2=O)cc1,,inactive: 1.69%
CC(C)(C)NC(=O)c1cc(-c2ccc3c(c2)OCO3)nc2ccccc12,"inconclusive: 1.41 µM [inhibitor, full curve, poor fit]",
